Assay results taken from patent US20250059275A1.
These are yes or no findings as the source states them, for the method shown. Some results given as binding are weak or reduced against the parent protein; the word gives no strength.

Amino acid sequences for entries named in this document (tags omitted). Residues count along the entry.
UniProt Q495A1, residues 22-141: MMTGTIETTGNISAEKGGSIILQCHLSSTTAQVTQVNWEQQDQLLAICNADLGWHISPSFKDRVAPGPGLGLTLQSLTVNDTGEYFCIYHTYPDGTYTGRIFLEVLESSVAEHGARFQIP

Key:
[1] = target: cynomolgus monkey TIGIT expressed on CHO-K1 cells (CHO-mkTIGIT) (cynomolgus monkey); test: flow cytometry on CHO-mkTIGIT cells, anti-human IgG secondary antibody
[2] = target: human TIGIT-HIS (Biointron, BI120) (human) (UniProt Q495A1); test: Octet BLI, TIGIT-HIS loaded on NTA sensor, antibody dilution series in solution
[3] = target: human TIGIT-HIS (Biointron, BI120) (human) (UniProt Q495A1); test: Octet BLI on TIGIT-HIS loaded sensor
[4] = target: human TIGIT-HIS (Biointron, BI120) (human) (UniProt Q495A1); test: Octet BLI tandem epitope competition, TIGIT-HIS loaded on the sensor, first antibody step

Measured: binding

B1: JHH4A057 (antibody, V domains shown)
VH: QVQLVQSGSELKKPGASVKVSCKASGYTLTSHALNWVRQAPGQGLEWMGWINTNTGNPTYVQGFTGRFVFSLDTSVSTAYLQISSLKAEDTAVYYCARGYSSPPRMDVWGQGTTVTVSS
VL: EIVLTQSPGTLFLSPGERATLSCRASQSVSRNYLVWYQQKPGQAPRLLIYGASTRATGIPDRFSGSGSGTDFTLTIRRLEPEDFALYYCQQYGSSPFTFGQGTKLEIN
binds: [1] | [2]

B2: JHH4A063 (antibody, V domains shown)
VH: EVQLVESGGGLVQPGRSLRLSCTASGFNFDDYGMHWVRQAPGKGLEWVSGISWNSISIGSADSVKGRFTISRDNAKNSLYLQMNSLRPEDTALYYCAKDGGDHYYYGMDVWGQGTTVTVSS
VL: DIMMTQSPLSLPVTPGEPASISCRSSQSLLHSNGYKYLNWYLQKPGQSPLLLIYLGSNRASGVPDRFSGSGSGTDFTLKISRVEAEDVGVYYCMQALQTPLTFGGGTKVEIK
binds: all assays above
